{"source": "PubChem BioAssay AID1224828 (NIAID, 2016)", "screen": "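Find genes required for NF-kappaB p65 moving into the nucleus after LPS in mouse macrophages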 (primary screen)", "cells": "mouse RAW264.7 G9 macrophage reporter cells (GFP-p65, Tnf promoter-mCherry)", "reagents": "siRNA pool against mouse genes, 100 nM", "duration": "2 days siRNA transfection, then 40 min LPS before fixation", "treatment": "LPS (Salmonella minnesota R595) at 10 ng/ml", "measured": "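Microscopy ratio of nuclear to perinuclear-ring GFP-p65 signal, scaled to the plate median; gene score is the average of two replicate robust z-scores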", "scale": "p65 translocation robust z-score: higher = more nuclear NF-kappaB p65 after LPS than the plate median; nuclear/cytoplasmic p65 ratio: higher = more nuclear NF-kappaB p65", "active means": "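Active if robust z is above 3.3 (negative regulators) or below -1.56, the Tlr4 control median (positive regulators); activity score 50 or more; control wells not called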", "calls": "active = hit (p65 shift raised or lowered); inactive = no clear change", "note": "Here is a random part of about 17,000 reagents tested. 762 of all reagents (4.5%) count as active. 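Active calls include both raised and lowered p65 entry, mostly lowered; wells with fewer than 50 cells lack a z-score.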 Raw values are not corrected between plates. Unmarked entries are inactive."}
{"Target gene": "Glis3", "nuclear/cytoplasmic p65 ratio, rep 1": 1.35, "nuclear/cytoplasmic p65 ratio, rep 2": 1.66, "low cell count flag": "fewer than 50 cells per well; well left out of scoring"}
{"Target gene": "Entpd6", "p65 translocation robust z-score": -0.52, "nuclear/cytoplasmic p65 ratio, rep 1": 1.55, "nuclear/cytoplasmic p65 ratio, rep 2": 1.36, "low cell count flag": "enough cells to score"}
{"Target gene": "Proc", "p65 translocation robust z-score": "-2.08 (active)", "nuclear/cytoplasmic p65 ratio, rep 1": 1.18, "nuclear/cytoplasmic p65 ratio, rep 2": 1.16, "low cell count flag": "enough cells to score"}
{"Target gene": "Mllt1", "p65 translocation robust z-score": 0.88, "nuclear/cytoplasmic p65 ratio, rep 1": 1.57, "nuclear/cytoplasmic p65 ratio, rep 2": 1.45, "low cell count flag": "enough cells to score"}
{"Target gene": "Pdzd11", "p65 translocation robust z-score": 2.17, "nuclear/cytoplasmic p65 ratio, rep 1": 1.52, "nuclear/cytoplasmic p65 ratio, rep 2": 1.92, "low cell count flag": "enough cells to score"}
{"Target gene": "Ctbs", "p65 translocation robust z-score": -0.78, "nuclear/cytoplasmic p65 ratio, rep 1": 1.54, "nuclear/cytoplasmic p65 ratio, rep 2": 1.57, "low cell count flag": "enough cells to score"}
{"Target gene": "Mterf4", "nuclear/cytoplasmic p65 ratio, rep 1": 1.46, "nuclear/cytoplasmic p65 ratio, rep 2": 1.36, "low cell count flag": "fewer than 50 cells per well; well left out of scoring"}
{"Target gene": "Podxl2", "p65 translocation robust z-score": -0.02, "nuclear/cytoplasmic p65 ratio, rep 1": 1.61, "nuclear/cytoplasmic p65 ratio, rep 2": 1.74, "low cell count flag": "enough cells to score"}
{"Target gene": "Aip", "p65 translocation robust z-score": 1.74, "nuclear/cytoplasmic p65 ratio, rep 1": 1.68, "nuclear/cytoplasmic p65 ratio, rep 2": 2.07, "low cell count flag": "enough cells to score"}
{"Target gene": "Abcg3", "p65 translocation robust z-score": 0.58, "nuclear/cytoplasmic p65 ratio, rep 1": 1.69, "nuclear/cytoplasmic p65 ratio, rep 2": 1.78, "low cell count flag": "enough cells to score"}
{"Target gene": "Ubald2", "nuclear/cytoplasmic p65 ratio, rep 1": 1.29, "nuclear/cytoplasmic p65 ratio, rep 2": 1.17, "low cell count flag": "fewer than 50 cells per well; well left out of scoring"}
{"Target gene": "Sult1d1", "nuclear/cytoplasmic p65 ratio, rep 1": 1.46, "nuclear/cytoplasmic p65 ratio, rep 2": 1.15, "low cell count flag": "fewer than 50 cells per well; well left out of scoring"}
{"Target gene": "Ano6", "p65 translocation robust z-score": -0.24, "nuclear/cytoplasmic p65 ratio, rep 1": 1.13, "nuclear/cytoplasmic p65 ratio, rep 2": 1.17, "low cell count flag": "enough cells to score"}

2 entries from above, ordered by “nuclear/cytoplasmic p65 ratio, rep 1”, highest first:
{"Target gene": "Entpd6", "p65 translocation robust z-score": -0.52, "nuclear/cytoplasmic p65 ratio, rep 1": 1.55, "nuclear/cytoplasmic p65 ratio, rep 2": 1.36, "low cell count flag": "enough cells to score"}
{"Target gene": "Glis3", "nuclear/cytoplasmic p65 ratio, rep 1": 1.35, "nuclear/cytoplasmic p65 ratio, rep 2": 1.66, "low cell count flag": "fewer than 50 cells per well; well left out of scoring"}

Additional reagents follow:
{"Target gene": "Naa60", "p65 translocation robust z-score": -0.94, "nuclear/cytoplasmic p65 ratio, rep 1": 1.28, "nuclear/cytoplasmic p65 ratio, rep 2": 1.28, "low cell count flag": "enough cells to score"}
{"Target gene": "Nt5m", "p65 translocation robust z-score": -0.11, "nuclear/cytoplasmic p65 ratio, rep 1": 1.72, "nuclear/cytoplasmic p65 ratio, rep 2": 1.5, "low cell count flag": "enough cells to score"}
{"Target gene": "Gatad1", "nuclear/cytoplasmic p65 ratio, rep 1": 1.73, "nuclear/cytoplasmic p65 ratio, rep 2": 1.35, "low cell count flag": "fewer than 50 cells per well; well left out of scoring"}
{"Target gene": "Xrcc4", "p65 translocation robust z-score": -0.16, "nuclear/cytoplasmic p65 ratio, rep 1": 1.49, "nuclear/cytoplasmic p65 ratio, rep 2": 1.48, "low cell count flag": "enough cells to score"}
{"Target gene": "Usp21", "p65 translocation robust z-score": -0.38, "nuclear/cytoplasmic p65 ratio, rep 1": 1.45, "nuclear/cytoplasmic p65 ratio, rep 2": 1.45, "low cell count flag": "enough cells to score"}
{"Target gene": "Rab14", "p65 translocation robust z-score": 0.13, "nuclear/cytoplasmic p65 ratio, rep 1": 1.36, "nuclear/cytoplasmic p65 ratio, rep 2": 1.26, "low cell count flag": "enough cells to score"}
{"Target gene": "Bcr", "nuclear/cytoplasmic p65 ratio, rep 1": 1.52, "nuclear/cytoplasmic p65 ratio, rep 2": 1.34, "low cell count flag": "fewer than 50 cells per well; well left out of scoring"}
{"Target gene": "Vti1b", "p65 translocation robust z-score": -0.76, "nuclear/cytoplasmic p65 ratio, rep 1": 1.31, "nuclear/cytoplasmic p65 ratio, rep 2": 1.13, "low cell count flag": "enough cells to score"}
